Results published in paper PMC6359284 (Molecules, 2019).

Assay: general procedure: Fmoc solid-phase peptide synthesis; NovaSyn TGR resin (0.25 mmol/g); HATU/DIPEA
Settings: whole synthesis, analytical RP-HPLC

Q: Which “final HPLC purity” value does the source give for Ac-VGDLTYLKK(FB) here?
A: >99%

Q: With Ac-VGDLTYLKK(FB)-PEG28 as the substance, how does the “final HPLC purity” value read?
A: >95%

Q: For FB-VGDLTYLKK, which “final HPLC purity” value is on record?
A: >99%

Q: For FB-VGDLTYLKK(FB), which “final HPLC purity” value is on record?
A: >99%

Q: With FB-VGDLTYLKK(FB)-PEG28 as the substance, how does the “final HPLC purity” value read?
A: >99%

Q: For GIDLTSLTK(FB), which “final HPLC purity” value is on record?
A: >97%

Q: With Me-VGDLTYLKK(FB) as the substance, how does the “final HPLC purity” value read?
A: >99%

Q: Which “final HPLC purity” value does the source give for PEG12-VGDLTYLKK(FB) here?
A: >99%

Q: For RGDLADLRK(FB), which “final HPLC purity” value is on record?
A: >99%

Q: Which “final HPLC purity” value does the source give for VGDLTYLKK(FB) here?
A: >96%

Q: With VGDLTYLKK(FB)-PEG28 as the substance, how does the “final HPLC purity” value read?
A: >99%
